# In PubChem BioAssay AID504444 (National Center for Advancing Translational Sciences (NCATS), 2011):
# In all, about 360,000 compounds went through this assay and about 7,500 (2.1%) were called active. This list was built around the results that the source calls inconclusive (neither active nor inactive); the mix of calls is not that of the screen. Calls come from the whole dose curve; as a rule, active = well fitted inhibition curve with a large enough effect; inconclusive = small, poorly fitted or top-dose-only effect, or effect the other way; inactive = flat fitted curve, though single readings scatter. Potencies of inconclusive entries are doubtful fits and often do not repeat.
# Experiment: Nrf2 qHTS screen for inhibitors; note: nearly all actives have a fitted effect of over 60% in size
# Settings: A549 ARE-Fluc reporter, luciferase luminescence, 18-24 h; activity change, negative = inhibition: at 46 µM (top of the series)
# Outline: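 Quantitative HTS in A549 cells stably bearing an antioxidant response element-firefly luciferase construct. Inhibition of Nrf2-driven transcription was scored by luminescence after 18-24 h of compound exposure at 37 °C.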
# % is set by controls: 0 for no effect and ±100 for the full control effect; potency is the fitted concentration of half-maximal effect.
Compound,Potency,"activity change, negative = inhibition"
Cc1nn(Cc2ccc(Cl)cc2Cl)c(C)c1NC(=O)c1ccc(COc2cc(Cl)ccc2Cl)o1,active: 11.6 µM,–
CCC(=O)N1CCc2cc(Br)cc(S(=O)(=O)CCC(=O)N3CCN(c4cccc(C)c4)C(C)C3)c21 (stereo unspecified),–,inactive: 4.72% [at 9.27 µM]
CCc1ccc(S(=O)(=O)Nc2ccc3c(c2)n(C)c(=O)c(=O)n3C)cc1,"inconclusive: 29.1 µM [falling, single point]",–
O=C(NCC(c1cccs1)N1CCOCC1)c1ccccc1NS(=O)(=O)c1ccc(Cl)c([N+](=O)[O-])c1 (stereo unspecified),"inconclusive: 3.66 µM [activator, partial curve]",–
CC1=C(C(=O)OC2CCCCCCC2)C(c2cccc(O)c2)NC(=O)N1 (stereo unspecified),active: 25.9 µM,–
Cc1ccc(/C=C/C(=O)N2CCN(c3cccc(C(F)(F)F)c3)CC2)cc1,"inconclusive: 23.1 µM [falling, partial curve, poor fit]",–
O=C(Nc1nc(-c2cccc3ccccc23)cs1)c1ccc2c(c1)S(=O)(=O)c1ccccc1C2=O,"inconclusive: 6.51 µM [falling, single point]",–
CCCCn1c(N)c(N(C)C(=O)c2ccc(-n3cccn3)cc2)c(=O)[nH]c1=O,–,inactive: 9.25%
COc1ccc(/C=C/C(=O)Nc2cccc(S(=O)(=O)N3CCOCC3)c2)cc1OC,"inconclusive: 16.4 µM [falling, single point]",–
O=C(CN1CCN(c2ccccc2)CC1)Nc1cccc([N+](=O)[O-])c1,"inconclusive: 11.6 µM [falling, partial curve]",–
Cc1cc(NC(=O)c2ccc(F)cc2)n(-c2ccccc2)n1,"inconclusive: 6.51 µM [activator, partial curve]",–
Cc1cc(N/C=C/C(=O)c2ccccc2)ccc1Br,"inconclusive: 6.51 µM [activator, partial curve]",–
Cc1nn(Cc2ccc(F)cc2)c(C)c1NC(=O)c1cccnc1Cl,–,inactive: -22.9%
Cc1csc(CN(C)C(=O)c2cn(Cc3cccc4ccccc34)nn2)n1,"inconclusive: 29.1 µM [activator, single point]",–
C=CCN1N=C(/C=C/c2ccc(C)cc2)CCC1=O,"inconclusive: 18.4 µM [activator, single point]",–
O=C(COc1ccc2ccccc2c1)Nc1ccc2c3c(cccc13)CC2,"inconclusive: 13 µM [falling, partial curve]",–
CC(Sc1ccccn1)C(=O)Nc1ccccc1 (stereo unspecified),"inconclusive: 4.61 µM [activator, full curve]",–
COc1cccc(N2CCN(Cc3cccnc3)CC2)c1,"inconclusive: 6.51 µM [activator, partial curve, poor fit]",–
Brc1ccc(-c2nnc(-c3ccccc3)o2)o1,"inconclusive: 1.16 µM [activator, full curve, poor fit]",–
CCC(CC)NC(=O)Nc1ccc(F)c(Cl)c1,"inconclusive: 29.1 µM [falling, single point]",–
Nc1nn(-c2cccc(F)n2)cc1-c1ccccc1,"inconclusive: 20.6 µM [activator, single point]",–
Cc1nn2c(SCC(=O)c3cccs3)cc(C(C)(C)C)nc2c1-c1ccccc1,active: 20.6 µM,–

# Record cards, as listed above:
# O=C(NCC(c1cccs1)N1CCOCC1)c1ccccc1NS(=O)(=O)c1ccc(Cl)c([N+](=O)[O-])c1 (stereo unspecified) reads Potency: inconclusive: 3.66 µM [activator, partial curve]
# Cc1nn(Cc2ccc(F)cc2)c(C)c1NC(=O)c1cccnc1Cl reads activity change, negative = inhibition: inactive: -22.9%

# Remaining list, next part.

Compound,Potency,"activity change, negative = inhibition"
O=c1c2ccccc2nc2n1CCS2(=O)=O,–,inactive: -15.4%
CCOCCCNC(=O)c1ccc(-n2c(-c3ccccc3)cc3c2CCC(C)C3)cc1 (stereo unspecified),"inconclusive: 14.6 µM [falling, partial curve, poor fit]",–
COc1ccc(NC(=O)c2cc(=O)c3ccccc3o2)cc1Cl,"inconclusive: 2.91 µM [falling, partial curve]",–
COC(c1ccccc1)c1nnc(CCC(=O)N2CCCCCCC2)o1 (stereo unspecified),"inconclusive: 6.51 µM [activator, partial curve, poor fit]",–
CCC(C)C(NC(=O)OC(C)(C)C)C(=O)NC1COC2CC(n3cc(C)c(=O)[nH]c3=O)OC12 (stereo unspecified),–,inactive: 19.3%
CSc1nnc(-c2cc3c(-c4ccccc4)nn(C)c3s2)n1C,"inconclusive: 6.51 µM [falling, partial curve]",–
COC(=O)C1=C(C)N(C)C(=O)NC1c1ccccc1 (stereo unspecified),–,inactive: 8.22%
O=C(Nc1ccc([N+](=O)[O-])cn1)c1ccc2c(c1)OCO2,"inconclusive: 4.11 µM [activator, full curve]",–
CCOc1ccc2nc(N3CCCC(C(=O)NCCc4ccc(OCC)c(OCC)c4)C3)sc2c1 (stereo unspecified),"inconclusive: 2.59 µM [activator, partial curve, poor fit]",–
O=C(COc1cc2oc(=O)c3c(c2cc1Cl)CCC3)NCc1ccncc1,"inconclusive: 18.4 µM [falling, partial curve, poor fit]",–
O=C1C=C(c2ccnc3cc(Cl)ccc23)C[C@@H](c2ccc3c(c2)OCO3)C1,active: 9.2 µM,–
COc1ccc(CCNC(=O)c2nc(-c3ccc(Cl)cc3)n3c2CCCCC3)c(OC)c1,"inconclusive: 29.1 µM [falling, single point]",–
CC(OC(=O)c1ccc(CN2CCCC2=O)cc1)C(=O)Nc1ccc(Cl)cc1 (stereo unspecified),"inconclusive: 2.31 µM [falling, partial curve, poor fit]",–
Cn1c(CCNC(=O)c2ccco2)nc2cc(NC(=O)c3ccccc3Cl)ccc21,–,inactive: 12.1%
CCc1ccc(Nc2nnc(SCn3nnc4ccccc4c3=O)s2)cc1,"inconclusive: 11.6 µM [falling, partial curve, poor fit]",–
CCOc1ccc(NC(=O)c2cccc(OC(=S)N3CCC(C)CC3)c2)cc1,"inconclusive: 23.1 µM [falling, partial curve, poor fit]",–
COc1ccc2nc(/C=N/NC(=O)[C@@H]3CCCN3C(=O)OC(C)(C)C)ccc2c1,"inconclusive: 18.4 µM [falling, partial curve]",–
COc1cccc(NC(=O)c2cccc(Cl)c2)c1,"inconclusive: 2.91 µM [activator, partial curve]",–
CC(=O)Nc1c(O)nc(SCc2ccc(Cl)cc2)[nH]c1=O,"inconclusive: 0.82 µM [falling, full curve, poor fit]",–
COc1cc2cnc(-c3ccccc3)c(C(=O)c3ccc(F)cc3)c2cc1OC,"inconclusive: 23.1 µM [falling, partial curve, poor fit]",–
CCN(CC)S(=O)(=O)c1ccc(OC)c(NC(=O)C2CC(=O)N(c3ccc4c(c3)OCCO4)C2)c1 (stereo unspecified),"inconclusive: 8.2 µM [falling, partial curve]",–
CC(=O)c1c(C)[nH]c(C(=O)OCC(=O)NCc2ccc(Cl)cc2)c1C,active: 8.2 µM,–

Compound,Potency,"activity change, negative = inhibition"
CCc1ccc(OC(=O)c2ccn(CC)n2)cc1,"inconclusive: 0.58 µM [activator, partial curve]",–
O=C(Nc1cccc(-c2ccc(N3CCOCC3)nn2)c1)c1ccc(F)cc1F,"inconclusive: 5.8 µM [activator, partial curve, poor fit]",–
COc1ccc(C(C)(C)C)cc1NC(=O)C1C2C=CC(C2)C1C(=O)O (stereo unspecified),"inconclusive: 7.31 µM [falling, partial curve, poor fit]",–
CCOc1ccccc1N1CCN(C(=O)c2ccc(Cl)c(S(=O)(=O)N3CCCCC3)c2)CC1,"inconclusive: 14.6 µM [falling, partial curve]",–
Brc1ccc2[nH]c3c(c2c1)CCC3,"inconclusive: 20.6 µM [activator, single point]",–
COC(=O)CSC1=C(C#N)C(c2cccc(OC)c2)CC(=O)N1 (stereo unspecified),"inconclusive: 0.0041 µM [falling, full curve, poor fit]",–
O=C(O)CCCNC(=O)c1ccccn1,"inconclusive: 36.6 µM [activator, single point]",–
CC1CCN(C(=O)c2cc(-c3ccco3)on2)CC1,"inconclusive: 5.8 µM [activator, full curve]",–
CCOc1ccc2oc(=O)cc(CN3CCN(C(=O)c4ccc(OC)c(OC)c4)CC3)c2c1,–,inactive: -0.902%
Cc1cc(NC(=O)CSc2nc(C)c(C)n2CC(C)C)no1,"inconclusive: 29.1 µM [falling, single point]",–
COc1ccc(C(=O)NCCN(C)C)c2nc3ccccc3cc12,"inconclusive: 0.92 µM [falling, partial curve]",–
Cc1ccc(CN(Cc2ccco2)C(=S)NCC(=O)NCc2cccnc2)cc1,active: 7.31 µM,–
Cc1oc(-c2cccc(Cl)c2)nc1CS(=O)(=O)CC(=O)NC1CC1,"inconclusive: 29.1 µM [activator, single point]",–
CCOc1cc(C=C(C(=O)OC)C(=O)OC)ccc1OCc1ccc([N+](=O)[O-])cc1,active: 18.4 µM,–
O=C1C=C(Nc2ccccc2)c2ccccc2C1=O,active: 20.6 µM,–
Cc1cccc(NC(=O)CSc2ncc(-c3ccccc3)[nH]2)c1C,"inconclusive: 2.59 µM [activator, partial curve]",–
CC(=O)Nc1ccc(S(=O)(=O)N(Cc2ccco2)Cc2cc3ccccc3[nH]c2=O)cc1,"inconclusive: 29.1 µM [activator, single point]",–
Cc1cccc(Nc2nc(N)nc(N)c2S(=O)(=O)c2ccccc2)c1,"inconclusive: 16.4 µM [falling, single point]",–
C=CCNC(=S)Nc1ccc(C)c(S(=O)(=O)N2CCCCC2)c1,–,inactive: -6.8%
Cc1ccc(NC(=O)NCC2CCN(Cc3cc(C)ccc3Cl)CC2)c(C)c1,"inconclusive: 18.4 µM [falling, partial curve, poor fit]",–
Cc1ccc2ccc3ccc(C)nc3c2n1,"inconclusive: 0.731 µM [falling, full curve, poor fit]",–
CCC1CCCCN1S(=O)(=O)c1ccc(NC(=O)c2nc(S(C)(=O)=O)ncc2Cl)cc1 (stereo unspecified),"inconclusive: 20.6 µM [falling, single point]",–
